# At least one compound was matched to its structure with a doubt left.
# Tests used:
# [1] = test system: IL-1β, TNF-α, IL-6 and IL-8 secretion in THP-1 cells; test: Cytokine secretion in LPS-stimulated THP-1 cells (ELISA); type: cell-based, human; conditions: THP-1, LPS 5 μg/mL, 6 hours; VR23 0.5-6 μM, BTZ 6 nM, CFZ 1 nM, DEX 2 μM
# Protocol: For comparison, BTZ (6 nM), CFZ (1 nM), and DEX (2 μM) were also included. *, **, and *** are p<0.05, p<0.01, and p<0.001, respectively, which denote a significant difference from the LPS-only group. The mean±SEM (n=3) values were determined by a Dunnett's test.
# The enzyme-linked immunosorbent assay (ELISA) is a quantitative measurement based on sandwich-based enzyme linking, using a protein-specific capture antibody to determine the levels of single or multiple chemokines and cytokines.
# Data shown in FIG. 11 are the results of experiments carried out to investigate VR23's effect on the levels of inflammatory cytokines. […] For comparison, BTZ (6 nM), CFZ (1 nM) and DEX (2 μM) were also included. The levels of cytokine secreted in cell culture supernatants were measured by a single-analyte ELISA. The IC50 value of VR23 is 3 μM and the concentrations of BTZ, CFZ and DEX used are their respective IC50 values.
# [2] = test system: mouse lung tissues with ALI caused by LPS; test: Histopathological analysis of lung tissues of mice with LPS-induced ALI; type: in vivo; conditions: LPS 0.4 mg/kg, 24 hours, VR23 30 mg/kg, DEX 4 mg/kg
# Protocol: Six to eight week old female BALB/c mice strain 028 (Charles River Laboratories, QC, Canada) were fed regularly with laboratory chow and water upon arrival at the Laurentian University Animal Care Facility (Sudbury, ON, Canada). To determine a useful dose of LPS, three mice per group were treated for 24 hours with the following three different conditions: (i) no LPS, (ii) 0.25 mg of LPS per kg of body weight, and (iii) 0.50 mg of LPS per kg of body weight. The different concentrations of LPS were administered intranasally to the three BALB/c mice per concentration. After the animals were sacrificed, the bronchoalveolar lavage fluid (BALF) of each mouse was collected and analyzed for LPS-induced inflammatory responses. […] Experimental design involving the use of VR23 was based on a previous acute lung injury (ALI) instillation by Wei and Huang^26. Briefly, mice were divided into 5 groups, with 3-5 mice per group: no lung injury (i.e., no treat), sham treated, LPS-only, LPS+DEX, and LPS+VR23. […] Bronchoalveolar lavage fluid was collected and the number of cells infiltrated into the bronchoalveolar fluid were counted (FIG. 2). […]
# At 24-hour post-induction of lung injury with LPS, lung tissues were embedded in the paraffin block, followed by slicing them into 10 μm sections using a microtome. […] For microscopy, at least 10 fields were analyzed for each sample. […]
compound,measurement,setting,value
"C[C@@H]1C[C@H]2[C@@H]3CCC4=CC(=O)C=C[C@]4(C)[C@@]3(F)[C@@H](O)C[C@]2(C)[C@@]1(O)C(=O)CO [DEX, Dexamethasone, reference compound]","levels of inflammatory cytokines IL-1β, TNF-α, IL-6, IL-8",[1],substantial and comparable anti-inflammatory activities
same,alveolar inflammation caused by LPS (H & E histopathology),[2],largely prevented

# From patent publication US11357774B2, “Use of a quinoline sulfonyl compound for treatment of inflammation, inflammatory disorders, autoimmune disorders and malaria” (priority 2019, dated 2022)
